Among the data in PubChem BioAssay AID252 (DTP/NCI, 2004) are T/C and survivor count values, retold here.

This experiment has as its system BDF1 mice, intracerebral L1210 leukemia, survival T/C. Nature of the experiment: NCI In Vivo Anticancer Drug Screen. Data for tumor model L1210 Leukemia (intracerebral) in B6D2F1 (BDF1) mice. To be noted: higher T/C = longer survival. The procedure, abridged:
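Antitumour effect is judged in mice with transplanted tumour by comparing survival of treated (T) against vehicle-dosed (C) groups as T/C.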

The list does not hold the whole screen: it is rich in T/C values a quarter to a half above the control, in often repeated tests (any T/C) and in doses without a T/C. Further doses and runs are listed elsewhere. T/C: endpoint of the treated group in % of that of the vehicle group. Some entries give survivors of the animals treated and no T/C: the source holds a T/C of zero for them, seemingly a mark for toxic or unscored doses. Some doses without a T/C left all or most animals alive at the check, yet need not have been tolerated: survival well below the control is almost never listed, so the zero probably covers shortened survival too. Survivors were counted at the toxicity check, usually on the fifth day, unless a day is given; later deaths do not show. Schedules are NCI's codes, taken here to give the interval after Q, in days (D) or hours (H), and the number of doses after X. Where survival is the endpoint, this PubChem deposit counts one and a half times the control or more as active, and values a quarter to a half above the control carry no call in these data; other NCI protocols may use other cut-offs. Some doses were run more than once; the values are given in rising order. Some T/C values are followed by the survivors on the day toxicity was checked, most often the fifth; without a count, all were alive then.

As for `CC(CN1CC(=O)NC(=O)C1)N1CC(=O)NC(=O)C1` (centres undefined), the T/C runs as follows: (T/C endpoint: mean survival time, dose: 3.12 mg/kg/injection, schedule: Q03HX024 (ip), vehicle: steroid suspending solution, evaluated on day 33) 125 % of control; (T/C endpoint: mean survival time, dose: 3.12 mg/kg/injection, schedule: Q03HX024 (ip), vehicle: steroid suspending solution, evaluated on day 40) 131 % of control; (T/C endpoint: mean survival time, dose: 6.25 mg/kg/injection, schedule: Q03HX024 (ip), vehicle: steroid suspending solution, evaluated on day 21) 128 % of control; (T/C endpoint: mean survival time, dose: 6.25 mg/kg/injection, schedule: Q03HX024 (ip), vehicle: steroid suspending solution, evaluated on day 33) 133 % of control; (T/C endpoint: mean survival time, dose: 6.25 mg/kg/injection, schedule: Q03HX024 (ip), vehicle: steroid suspending solution, evaluated on day 40) 143 % of control; (T/C endpoint: mean survival time, dose: 25.0 mg/kg/injection, schedule: Q01DX009 (ip), vehicle: steroid suspending solution) 132 % of control. The T/C is, setting by setting: (T/C endpoint: mean survival time, dose: 50.0 mg/kg/injection, schedule: Q01DX009 (ip), vehicle: steroid suspending solution) 142 % of control; (T/C endpoint: mean survival time, dose: 100.0 mg/kg/injection, schedule: Q01DX001 (ip), vehicle: steroid suspending solution) 128 % of control; (T/C endpoint: mean survival time, dose: 100.0 mg/kg/injection, schedule: Q04DX003 (ip), vehicle: steroid suspending solution, evaluated on day 19) 128 % of control; (T/C endpoint: mean survival time, dose: 100.0 mg/kg/injection, schedule: Q04DX003 (ip), vehicle: steroid suspending solution, evaluated on day 21) 124 % of control; (T/C endpoint: mean survival time, dose: 100.0 mg/kg/injection, schedule: Q04DX003 (ip), vehicle: steroid suspending solution, evaluated on day 33) 124 % of control; (T/C endpoint: mean survival time, dose: 100.0 mg/kg/injection, schedule: Q04DX003 (ip), vehicle: steroid suspending solution, evaluated on day 40) 119 % of control. Besides, the T/C was 134 % of control (T/C endpoint: mean survival time, dose: 108.0 mg/kg/injection, schedule: Q04DX003 (ip), vehicle: other); 127 % of control (T/C endpoint: mean survival time, dose: 108.0 mg/kg/injection, schedule: Q04DX003 (ip), vehicle: steroid suspending solution, evaluated on day 27); 134 % of control (T/C endpoint: mean survival time, dose: 108.0 mg/kg/injection, schedule: Q04DX003 (ip), vehicle: steroid suspending solution, evaluated on day 45); 143 % of control (T/C endpoint: mean survival time, dose: 180.0 mg/kg/injection, schedule: Q04DX003 (ip), vehicle: Klucel (hydroxypropylcellulose) (HPC), evaluated on day 7); 143 % of control (T/C endpoint: mean survival time, dose: 180.0 mg/kg/injection, schedule: Q04DX003 (ip), vehicle: Klucel (hydroxypropylcellulose) (HPC), evaluated on day 30); 144 % of control (T/C endpoint: mean survival time, dose: 180.0 mg/kg/injection, schedule: Q04DX003 (ip), vehicle: other). In addition, the T/C (T/C endpoint: mean survival time, dose: 180.0 mg/kg/injection, schedule: Q04DX003 (ip), vehicle: steroid suspending solution) is 143 % of control; the T/C (T/C endpoint: mean survival time, dose: 200.0 mg/kg/injection, schedule: Q04DX003 (ip), vehicle: steroid suspending solution, evaluated on day 19) was 156 % of control; the T/C (T/C endpoint: mean survival time, dose: 200.0 mg/kg/injection, schedule: Q04DX003 (ip), vehicle: steroid suspending solution, evaluated on day 21) is 141 % of control; the T/C (T/C endpoint: mean survival time, dose: 200.0 mg/kg/injection, schedule: Q04DX003 (ip), vehicle: steroid suspending solution, evaluated on day 33) was 141 % of control; the T/C (T/C endpoint: mean survival time, dose: 200.0 mg/kg/injection, schedule: Q04DX003 (ip), vehicle: steroid suspending solution, evaluated on day 40) was 139 % of control; the T/C (T/C endpoint: mean survival time, dose: 300.0 mg/kg/injection, schedule: Q04DX003 (ip), vehicle: Klucel (hydroxypropylcellulose) (HPC), evaluated on day 7) is 149 % of control. For the same compound, the T/C runs as follows: (T/C endpoint: mean survival time, dose: 300.0 mg/kg/injection, schedule: Q04DX003 (ip), vehicle: Klucel (hydroxypropylcellulose) (HPC), evaluated on day 30) 149 % of control; (T/C endpoint: mean survival time, dose: 400.0 mg/kg/injection, schedule: Q04DX003 (ip), vehicle: steroid suspending solution, evaluated on day 19) 172 % of control; (T/C endpoint: mean survival time, dose: 400.0 mg/kg/injection, schedule: Q04DX003 (ip), vehicle: steroid suspending solution, evaluated on day 21) 145 % of control; (T/C endpoint: mean survival time, dose: 400.0 mg/kg/injection, schedule: Q04DX003 (ip), vehicle: steroid suspending solution, evaluated on day 33) 153 % of control; (T/C endpoint: mean survival time, dose: 400.0 mg/kg/injection, schedule: Q04DX003 (ip), vehicle: steroid suspending solution, evaluated on day 40) 164 % of control; (T/C endpoint: mean survival time, dose: 500.0 mg/kg/injection, schedule: Q04DX003 (ip), vehicle: Klucel (hydroxypropylcellulose) (HPC), evaluated on day 7) 127 % of control. Also, the T/C is, setting by setting: (T/C endpoint: mean survival time, dose: 500.0 mg/kg/injection, schedule: Q04DX003 (ip), vehicle: Klucel (hydroxypropylcellulose) (HPC), evaluated on day 30) 127 % of control; (T/C endpoint: mean survival time, dose: 500.0 mg/kg/injection, schedule: Q04DX003 (ip), vehicle: other) 132 % of control; (T/C endpoint: mean survival time, dose: 500.0 mg/kg/injection, schedule: Q04DX003 (ip), vehicle: steroid suspending solution) 131 % of control; (T/C endpoint: median survival time, dose: 8.0 mg/kg/injection, schedule: Q01DX009 (ip), vehicle: Klucel (hydroxypropylcellulose) (HPC)) 125 % of control; (T/C endpoint: median survival time, dose: 16.0 mg/kg/injection, schedule: Q01DX009 (ip), vehicle: Klucel (hydroxypropylcellulose) (HPC), evaluated on day 30) 130 % of control; (T/C endpoint: median survival time, dose: 16.0 mg/kg/injection, schedule: Q01DX009 (ip), vehicle: Klucel (hydroxypropylcellulose) (HPC), evaluated on day 31) 130 % of control. The T/C is 143 % of control [9 of 10 alive] (T/C endpoint: median survival time, dose: 32.0 mg/kg/injection, schedule: Q01DX009 (ip), vehicle: Klucel (hydroxypropylcellulose) (HPC), evaluated on day 30); 130 % of control (T/C endpoint: median survival time, dose: 32.0 mg/kg/injection, schedule: Q01DX009 (ip), vehicle: Klucel (hydroxypropylcellulose) (HPC), evaluated on day 31); 126 % of control (T/C endpoint: median survival time, dose: 32.0 mg/kg/injection, schedule: Q01DX009 (ip), vehicle: Klucel (hydroxypropylcellulose) (HPC), evaluated on day 36); 131 % of control (T/C endpoint: median survival time, dose: 64.0 mg/kg/injection, schedule: Q01DX009 (ip), vehicle: Klucel (hydroxypropylcellulose) (HPC), evaluated on day 30); 145 % of control (T/C endpoint: median survival time, dose: 64.0 mg/kg/injection, schedule: Q01DX009 (ip), vehicle: Klucel (hydroxypropylcellulose) (HPC), evaluated on day 31); 96 and 119 % of control (T/C endpoint: median survival time, dose: 180.0 mg/kg/injection, schedule: Q04DX003 (ip), vehicle: Klucel (hydroxypropylcellulose) (HPC), evaluated on day 5). Further, the T/C reads like this: (T/C endpoint: median survival time, dose: 180.0 mg/kg/injection, schedule: Q04DX003 (ip), vehicle: Klucel (hydroxypropylcellulose) (HPC), evaluated on day 24) 119 % of control; (T/C endpoint: median survival time, dose: 180.0 mg/kg/injection, schedule: Q04DX003 (ip), vehicle: Klucel (hydroxypropylcellulose) (HPC), evaluated on day 26) 96 % of control; (T/C endpoint: median survival time, dose: 300.0 mg/kg/injection, schedule: Q04DX003 (ip), vehicle: Klucel (hydroxypropylcellulose) (HPC), evaluated on day 5) 117 and 130 % of control; (T/C endpoint: median survival time, dose: 300.0 mg/kg/injection, schedule: Q04DX003 (ip), vehicle: Klucel (hydroxypropylcellulose) (HPC), evaluated on day 24) 130 % of control; (T/C endpoint: median survival time, dose: 300.0 mg/kg/injection, schedule: Q04DX003 (ip), vehicle: Klucel (hydroxypropylcellulose) (HPC), evaluated on day 26) 117 % of control; (T/C endpoint: median survival time, dose: 500.0 mg/kg/injection, schedule: Q04DX003 (ip), vehicle: Klucel (hydroxypropylcellulose) (HPC), evaluated on day 5) 138 and 143 % of control. Moreover, the T/C was 138 % of control (T/C endpoint: median survival time, dose: 500.0 mg/kg/injection, schedule: Q04DX003 (ip), vehicle: Klucel (hydroxypropylcellulose) (HPC), evaluated on day 24); 143 % of control (T/C endpoint: median survival time, dose: 500.0 mg/kg/injection, schedule: Q04DX003 (ip), vehicle: Klucel (hydroxypropylcellulose) (HPC), evaluated on day 26); 107 and 116 % of control (T/C endpoint: median survival time, dose: 833.0 mg/kg/injection, schedule: Q04DX003 (ip), vehicle: Klucel (hydroxypropylcellulose) (HPC), evaluated on day 5); 116 % of control (T/C endpoint: median survival time, dose: 833.0 mg/kg/injection, schedule: Q04DX003 (ip), vehicle: Klucel (hydroxypropylcellulose) (HPC), evaluated on day 24); 107 % of control (T/C endpoint: median survival time, dose: 833.0 mg/kg/injection, schedule: Q04DX003 (ip), vehicle: Klucel (hydroxypropylcellulose) (HPC), evaluated on day 26). The survivor count runs as follows: (T/C endpoint: mean survival time, dose: 25.0 mg/kg/injection, schedule: Q03HX024 (ip), vehicle: steroid suspending solution) 5 of 8; (T/C endpoint: mean survival time, dose: 800.0 mg/kg/injection, schedule: Q01DX001 (ip), vehicle: steroid suspending solution) 8 of 8.

As to `CCOC(=O)c1ccc(NC(=O)N(C)N=O)cc1`, the survivor count runs as follows: (T/C endpoint: mean survival time, dose: 600.0 mg/kg/injection, schedule: Q01DX001 (ip), vehicle: carboxymethylcellulose (CMC)) 6 of 10; (T/C endpoint: mean survival time, dose: 1200.0 mg/kg/injection, schedule: Q01DX001 (ip), vehicle: carboxymethylcellulose (CMC)) 1 of 10.

Turning to `O=NN(CCCl)C(=O)NC1C2CC3CC(C2)CC1C3` (centres undefined), the T/C (T/C endpoint: mean survival time, dose: 95.0 mg/kg/injection, schedule: Q01DX001 (ip), vehicle: other) is 128 % of control and the T/C (T/C endpoint: mean survival time, dose: 362.0 mg/kg/injection, schedule: Q01DX001 (ip), vehicle: other) is 141 % of control [9 of 10 alive].
